Data source: PubChem BioAssay AID652272 (Drosophila RNAi Screening Center, 2013)
In all, the deposit lists about 21,000 reagents; this is a random part of those with a known target gene and a result. In the full data, 503 (2.4%) are marked active. 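Raw plate light values, not normalised; calls rest on replicate z-scores that were not deposited; hits include reporter decreases as well as increases.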 Entries without a mark were called inactive. Names joined by + are all predicted targets of the reagent. Not given: the amount of reagent, the time to read-out.

- Assay: 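Genome-wide knock-down search for components of Hedgehog signalling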 (primary screen)
- Cell system: Drosophila clone 8 (Cl8) cells
- Knock-down reagent: long dsRNA against Drosophila genes
- Measured: 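Plate reader light from a firefly reporter under a ptc promoter fragment that responds to Hedgehog, with Renilla light as transfection reference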
- Scale: firefly Hh reporter signal: higher = more ptc reporter light; Renilla reference signal: higher = more Renilla control light
- Rule for the call: 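Called a hit if the two-replicate mean z-score lies below -2 or above +3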
- Meaning of the calls: active = hit: reporter lowered or raised; inactive = not a hit

Target gene | DRSC id | firefly Hh reporter signal, replicate 1 | firefly Hh reporter signal, replicate 2 | firefly Hh reporter signal, replicate 3 | Renilla reference signal, replicate 1 | Renilla reference signal, replicate 2
subdued | DRSC15137 | 99346 | 62545 | – | 4153 | 2692
tey (teyrha-meyrha) | DRSC11042 | 1.96e5 | 5.73e5 | 1.83e5 | 6737 | 5990
hiro (highroad) | DRSC08564 | 84821 | 49004 | – | 4488 | 2640
CG42233 | DRSC14328 | 96135 | 2.38e5 | – | 3841 | 8539
CG42233 | DRSC15416 | 82054 | 2.09e5 | – | 2976 | 6710
CG3634 | DRSC11747 | 93719 | 1.04e5 | – | 2981 | 2594
CG31515 | DRSC13610 | 37696 | 1.89e5 | – | 9835 | 4272
Cbl (Cbl proto-oncogene) | DRSC10764 | 56829 | 54017 | – | 6316 | 3936
Cbl (Cbl proto-oncogene) | DRSC11111 | 25133 | 39126 | – | 3073 | 2673
CG7841 | DRSC10922 | 1.05e5 | – | – | 4624 | 2736
san (separation anxiety) | DRSC07695 | 89036 | 64812 | – | 2076 | 4515
skd (skuld) | DRSC11898 | 82242 | 1.01e5 | – | 2903 | 3414
pit (pitchoune) | DRSC17025 | 7.75e5 | 1.64e5 | – | 42706 | 12250
Hat1 (Histone acetyltransferase 1) | DRSC12298 | 77105 | 1.04e5 | – | 3044 | 3157
Nplp3 (Neuropeptide-like precursor 3) | DRSC09944 | 1.79e5 | – | – | 2267 | 5216
CG14933 + CG42486 | DRSC02415 | 1.50e5 | 75027 | – | 2535 | 6134
CG7251 | DRSC03039 | 65045 | 48599 | – | 2754 | 1988
bgcn (benign gonial cell neoplasm) | DRSC04062 | 77771 | 53916 | – | 1733 | 4634
bgcn (benign gonial cell neoplasm) | DRSC04063 | 74163 | 49901 | – | 1511 | 4109
CG7137 | DRSC07017 | 94506 | 58608 | – | 5682 | 2557
Capr (Caprin) | DRSC10346 | 1.29e5 | – | – | 4986 | 3880
CG13578 | DRSC04214 | 79264 | 40385 | – | 2176 | 4297
CG9215 | DRSC20171 | 58710 | 1.57e5 | – | 1789 | 6940
CG16775 | DRSC10225 | 1.64e5 | – | – | 5552 | 5280
pigeon | DRSC03565 | 62080 | 35765 | – | 2896 | 1804
kune (kune-kune) | DRSC04860 | 84624 | 80144 | – | 2055 | 7268
Tgi (Tondu-domain-containing Growth Inhibitor) | DRSC09793 | 37046 | 56176 | 52839 | 5488 | 3852
Tgi (Tondu-domain-containing Growth Inhibitor) | DRSC09794 | 51883 | 47536 | 50453 | 4534 | 3484
CG7702 | DRSC16293 | 1.13e5 | 93569 | – | 3620 | 3589
CG32544 | DRSC20033 | 70928 | 1.68e5 | – | 1312 | 7506
CG1529 | DRSC20515 | 1.10e5 | 4.32e5 | 1.42e5 | 4432 | 3115
MESR6 (Misexpression suppressor of ras 6) | DRSC10720 | 98848 | 54024 | – | 4345 | 2194
CG14053 | DRSC17908 | 97819 | 1.99e5 | – | 3317 | 7211
CG8673 | DRSC03105 | 94545 | 41654 | – | 2988 | 4028
CG2991 | DRSC00559 | 88572 | 49946 | – | 4155 | 2588
aqz + CG9837 | DRSC12709 | 2.86e5 | – | – | 6852 | –
CG3632 | DRSC19137 | 5.95e5 | 2.82e5 | – | 29538 | 6834
CG3632 | DRSC19871 | 96570 | 72347 | – | 1632 | 1243
Ssdp (Sequence-specific single-stranded DNA-binding protein) | DRSC16211 | 5.80e5 | 62429 | – | 28583 | 1552
Nadk1a (NAD kinase 1a) | DRSC05431 | 1.60e5 | 3.66e5 | – | 4331 | 14459
Nadk1a (NAD kinase 1a) | DRSC06963 | 1.53e5 | 94342 | – | 5968 | 3616
Brms1 (BRMS1 transcriptional repressor) | DRSC19896 | 47152 | 1.62e5 | – | 1482 | 6315
vex (vexed) | DRSC19481 | 94233 | 2.27e5 | – | 3040 | 8517
vex (vexed) | DRSC19651 | 1.11e5 | 3.31e5 | – | 3257 | 11574
Fkbp39 (FK506-binding protein 39kD) | DRSC16667 | 72273 | 68618 | – | 3168 | 3200
psh (persephone) | DRSC19990 | 87557 | 2.62e5 | – | 2160 | 10390
nsr (novel spermatogenesis regulator) | DRSC04427 | 1.84e5 | 1.58e5 | – | 7098 | 5936
dgrn (degringolade) | DRSC12154 | 91461 | 77381 | – | 3914 | 2896
mRpS6 (mitochondrial ribosomal protein S6) | DRSC08470 | 65120 | 45228 | – | 6199 | 2869
igl (igloo) | DRSC07631 | 1.37e5 | 1.34e5 | – | 4742 | 5340
CG10750 | DRSC02105 | 84112 | 50464 | – | 4013 | 2560
tctn + B9d2 | DRSC03160 | 1.22e5 | 53520 | – | 3082 | 4688
Pura (Puratrophin-1-like) | DRSC08891 | 85603 | 2.27e5 | – | 2373 | 9926
Pura (Puratrophin-1-like) | DRSC10862 | 68186 | 53523 | – | 6505 | 3787
Pura (Puratrophin-1-like) | DRSC10864 | 53616 | 37408 | – | 6256 | 3264
Pura (Puratrophin-1-like) | DRSC10865 | 56045 | 43233 | – | 6455 | 4017
Pura (Puratrophin-1-like) | DRSC10866 | 61466 | 84279 | – | 7160 | 6386
Ggamma1 (G protein gamma subunit 1) | DRSC07435 | 1.06e5 | 70044 | – | 3645 | 2592
vir-1 (virus-induced RNA 1) | DRSC02501 | 84945 | 41689 | – | 2181 | 3969
vir-1 (virus-induced RNA 1) | DRSC02863 | 55968 | 23628 | – | 1897 | 2628
eIF1 (eukaryotic translation initiation factor 1) | DRSC08520 | 1.10e5 | 40314 | – | 4256 | 3497
Ctr9 | DRSC08562 | 1.37e5 | 85831 | – | 4646 | 2818
CG14143 | DRSC10146 | 53532 | 43290 | 67356 | 4752 | 4540
Chs2 (Chitin synthase 2) | DRSC11830 | 70896 | 1.01e5 | – | 2518 | 2501
CG31223 | DRSC15115 | 1.11e5 | 47562 | – | 4704 | 1830
CG15254 | DRSC01870 | 1.52e5 | 5.45e5 | 76050 | 3970 | 28258
eIF4B (eukaryotic translation initiation factor 4B) | DRSC20983 | 61146 | 1.94e5 | – | 896 | 6947
snama (something that sticks like glue) | DRSC04049 | 97997 | 42538 | – | 4643 | 2103
CG7798 | DRSC07047 | 55474 | 31531 | – | 1349 | 2490
boil (boilerman) | DRSC17872 | 69943 | 1.90e5 | – | 1350 | 6765
CG10654 | DRSC09767 | 42009 | 53448 | 69591 | 5113 | 4929
CG31326 | DRSC16532 | 76433 | 79685 | – | 1205 | 1682
CG6791 | DRSC16118 | 1.69e5 | 1.03e5 | – | 7562 | 4679

Looked up above.
For “firefly Hh reporter signal, replicate 2”, pit (pitchoune) [DRSC17025] has 1.64e5
Under “Renilla reference signal, replicate 1”, Pura (Puratrophin-1-like) [DRSC10862] has 6505
For “Renilla reference signal, replicate 1”, mRpS6 (mitochondrial ribosomal protein S6) [DRSC08470] shows 6199
Value for Capr (Caprin) [DRSC10346] in “firefly Hh reporter signal, replicate 1”: 1.29e5
tctn + B9d2 [DRSC03160], firefly Hh reporter signal, replicate 2 → 53520
Entry for subdued [DRSC15137] under “firefly Hh reporter signal, replicate 2”: 62545
